{
  "source": "paper PMC8529873",
  "about": "“Carbohydrate-Based NK1R Antagonists with Broad-Spectrum Anticancer Activity” (Journal of Medicinal Chemistry, 2021)",
  "key": {"[1]": {"test_system": "MDA-MB-231 (triple-negative breast cancer)", "test": "Resazurin cell viability assay, 96 h, MDA-MB-231", "format": "cell-based, human", "conditions": "read-out: IC50 (mean ± SEM) MDA-MB-231", "text": "(§1) Cell viability was estimated with the resazurin assay. HaCaT human skin nonmalignant cells were used to study selectivity; these cells are derived from normal adult tissue and have a division rate similar to that of cancer cells.\n(§2) Cell viability was estimated with the 3-(4,5-dimethylthiazol-2-yl)-2,5-diphenyltetrazolium bromide (MTT) assay or the resazurin assay. Both assays are redox-based colorimetric techniques based on the capability of viable cells to reduce the yellow product MTT or the blue reagent resazurin into a purple formazan dye or a pink-colored product, respectively. The number of live cells is directly proportional to the amount of the final product created. Exponentially growing cells were seeded in 96-well plates and were allowed to grow during 24 h. The cells were then treated with several concentrations of the tested compounds for 48–96 h (the incubation periods are specified in the figures and table legends) before measuring the cell viability using the MTT assay or the resazurin assay.\n(§3) The OD of each well was measured at 540 and 620 nm on a multiwell plate spectrophotometer reader."}, "Sk-OV-3 (ovarian cancer)": {"test_system": "Sk-OV-3 (ovarian cancer)", "test": "Resazurin cell viability assay, 96 h, Sk-OV-3", "format": "cell-based, human", "conditions": "read-out: IC50 (mean ± SEM) Sk-OV-3", "text": "as §1, §2, §3"}},
  "data": [
    {"smiles": "N.N.[Cl][Pt][Cl]", "note": "[Cisplatin]", "values": [
      {"measurement": "IC50", "setting": "[1]", "result": "10.2 ± 6.3", "unit": "µM"},
      {"measurement": "IC50", "setting": "Sk-OV-3 (ovarian cancer)", "result": "4.3 ± 0.5", "unit": "µM"}
    ]}
  ]
}
